Test results as given in paper PMC2958145.
No constants are given. Whether binding was seen depends on the method and setting. For part of these data: Binding calls can cover weak binding; strength is not graded here.

Columns and labels:
[1] = target: CRASP-5 expressed by transformed B. garinii strain G1/pCRASP-5 (B. burgdorferi s.s. strain LW2); assay: serum adsorption assay on live spirochetes; 1×10^9 borreliae incubated in NHS with 34 mM EDTA 1 h at room temperature, four washes with PBSA 0.05% Tween20, eluted with 100 mM glycine-HCl pH 2.0; Western blot with mAb VIG8 or JHD 7.10
[2] = target: recombinant polyhistidine-tagged ErpQ; assay: ELISA; CRASP-3, CRASP-5, ErpX, ErpQ (5 µg/ml) coated on microtiter plates; 33 µM CFH, CFHR1, CFHR2 or CFHR5 added 1 h at RT; detected with goat CFH antiserum or JHD 7.10; both purified
[3] = target: recombinant polyhistidine-tagged ErpX; assay: as above

Binder	binding [1]	binding [2]	binding [3]
factor H-related protein 5 (CFHR5) of human serum (protein, UniProt Q9BXR6 19-569) EGTLCDFPKIHHGFLYDEEDYNPFSQVPTGEVFYYSCEYNFVSPSKSFWTRITCTEEGWSPTPKCLRMCSFPFVKNGHSESSGLIHLEGDTVQIICNTGYSLQNNEKNISCVERGWSTPPICSFTKGECHVPILEANVDAQPKKESYKVGDVLKFSCRKNLIRVGSDSVQCYQFGWSPNFPTCKGQVRSCGPPPQLSNGEVKEIRKEEYGHNEVVEYDCNPNFIINGPKKIQCVDGEWTTLPTCVEQVKTCGYIPELEYGYVQPSVPPYQHGVSVEVNCRNEYAMIGNNMITCINGIWTELPMCVATHQLKRCKIAGVNIKTLLKLSGKEFNHNSRIRYRCSDIFRYRHSVCINGKWNPEVDCTEKREQFCPPPPQIPNAQNMTTTVNYQDGEKVAVLCKENYLLPEAKEIVCKDGRWQSLPRCVESTAYCGPPPSINNGDTTSFPLSVYPPGSTVTYRCQSFYKLQGSVTVTCRNKQWSEPPRCLDPCVVSEENMNKNNIQLKWRNDGKLYAKTGDAVEFQCKFPHKAMISSPPFRAICQEGKFEYPICE	binds	–	–
purified recombinant CFHR5 (protein, UniProt Q9BXR6 19-569) EGTLCDFPKIHHGFLYDEEDYNPFSQVPTGEVFYYSCEYNFVSPSKSFWTRITCTEEGWSPTPKCLRMCSFPFVKNGHSESSGLIHLEGDTVQIICNTGYSLQNNEKNISCVERGWSTPPICSFTKGECHVPILEANVDAQPKKESYKVGDVLKFSCRKNLIRVGSDSVQCYQFGWSPNFPTCKGQVRSCGPPPQLSNGEVKEIRKEEYGHNEVVEYDCNPNFIINGPKKIQCVDGEWTTLPTCVEQVKTCGYIPELEYGYVQPSVPPYQHGVSVEVNCRNEYAMIGNNMITCINGIWTELPMCVATHQLKRCKIAGVNIKTLLKLSGKEFNHNSRIRYRCSDIFRYRHSVCINGKWNPEVDCTEKREQFCPPPPQIPNAQNMTTTVNYQDGEKVAVLCKENYLLPEAKEIVCKDGRWQSLPRCVESTAYCGPPPSINNGDTTSFPLSVYPPGSTVTYRCQSFYKLQGSVTVTCRNKQWSEPPRCLDPCVVSEENMNKNNIQLKWRNDGKLYAKTGDAVEFQCKFPHKAMISSPPFRAICQEGKFEYPICE	–	no binding (tested: 33 µM)	no binding (tested: 33 µM)
